Results are given in words; binding and its absence hold for the method and conditions named. For part of these data: Binding seen in cells or lysates may run through a third protein. Some results given as binding are weak or reduced against the parent protein; the word gives no strength. Where a sequence is shown, tags or fusion partners need not be part of it.
Columns and labels:
[1] = target: T1, Flag-epitope tagged soluble Apo-3 (human) (UniProt Q93038); test: Western blot of co-immunoprecipitated ligands/receptors (legend of FIG. 8A)
T1 sequence (looked up): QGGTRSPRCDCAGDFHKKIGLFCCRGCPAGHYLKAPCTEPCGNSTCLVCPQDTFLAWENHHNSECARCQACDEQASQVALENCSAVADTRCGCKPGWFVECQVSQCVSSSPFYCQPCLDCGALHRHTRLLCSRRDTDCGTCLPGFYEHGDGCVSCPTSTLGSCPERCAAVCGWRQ

[2] = target: T1, Flag-epitope tagged soluble Apo-3 (human); test: apoptosis assay after immunodepletion of ligand-receptor complexes (legend of FIG. 8B)
[3] = target: T1, Flag-epitope tagged soluble Apo-3 (human); test: co-immunoprecipitation (anti-Flag sepharose or nickel-sepharose), Western blot with nickel-conjugated HRP

Measured: binding

B1: His-tagged soluble Apo-3 Ligand (ligand)
chain: MGHHHHHHHHHHSSGHIDDDDKHMRASLSAQEPAQEELVAEEDQDPSELNPQTEESQDPAPFLNRLVRPRRSAPKGRKTRARRAIAAHYEVHPRPGQDGAQAGVDGTVSGWEEARINSSSPLRYNRQIGEFIVTRAGLYYLYCQVHFDEGKAVYLKLDLLVDGVLALRCLEEFSATAASSLGPQLRLCQVSGLLALRPGSSLRIRTLPWAHLKAAPFLTYFGLFQVH
binds: all assays above
